{"sequences": {"note": "Amino acid sequences for entries named in this document (tags omitted).", "UniProt Q13547": "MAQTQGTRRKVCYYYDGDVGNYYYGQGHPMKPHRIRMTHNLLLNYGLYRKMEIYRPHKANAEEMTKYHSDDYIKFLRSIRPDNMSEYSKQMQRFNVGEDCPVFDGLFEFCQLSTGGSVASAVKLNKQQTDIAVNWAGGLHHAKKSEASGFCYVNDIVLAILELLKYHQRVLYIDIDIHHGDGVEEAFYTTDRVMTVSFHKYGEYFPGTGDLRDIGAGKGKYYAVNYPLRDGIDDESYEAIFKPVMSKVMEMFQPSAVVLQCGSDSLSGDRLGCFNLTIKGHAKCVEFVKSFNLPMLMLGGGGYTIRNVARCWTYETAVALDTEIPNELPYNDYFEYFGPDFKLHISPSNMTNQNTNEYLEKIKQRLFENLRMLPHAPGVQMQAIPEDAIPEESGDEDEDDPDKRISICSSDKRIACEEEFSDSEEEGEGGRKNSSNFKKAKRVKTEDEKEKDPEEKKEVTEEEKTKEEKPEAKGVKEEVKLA", "UniProt O09106": "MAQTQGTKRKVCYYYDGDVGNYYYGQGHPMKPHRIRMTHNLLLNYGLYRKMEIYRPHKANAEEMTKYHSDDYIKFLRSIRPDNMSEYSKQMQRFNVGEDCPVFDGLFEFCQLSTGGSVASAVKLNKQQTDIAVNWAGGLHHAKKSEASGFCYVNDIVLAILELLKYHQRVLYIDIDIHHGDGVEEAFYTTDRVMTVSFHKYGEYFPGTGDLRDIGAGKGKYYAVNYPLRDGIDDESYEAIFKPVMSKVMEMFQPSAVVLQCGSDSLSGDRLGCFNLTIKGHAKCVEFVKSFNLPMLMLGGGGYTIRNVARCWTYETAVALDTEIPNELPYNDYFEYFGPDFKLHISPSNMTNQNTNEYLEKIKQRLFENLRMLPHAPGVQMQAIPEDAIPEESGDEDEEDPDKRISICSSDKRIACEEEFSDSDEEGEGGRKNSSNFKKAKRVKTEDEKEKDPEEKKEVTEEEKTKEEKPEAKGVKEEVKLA", "UniProt P70288": "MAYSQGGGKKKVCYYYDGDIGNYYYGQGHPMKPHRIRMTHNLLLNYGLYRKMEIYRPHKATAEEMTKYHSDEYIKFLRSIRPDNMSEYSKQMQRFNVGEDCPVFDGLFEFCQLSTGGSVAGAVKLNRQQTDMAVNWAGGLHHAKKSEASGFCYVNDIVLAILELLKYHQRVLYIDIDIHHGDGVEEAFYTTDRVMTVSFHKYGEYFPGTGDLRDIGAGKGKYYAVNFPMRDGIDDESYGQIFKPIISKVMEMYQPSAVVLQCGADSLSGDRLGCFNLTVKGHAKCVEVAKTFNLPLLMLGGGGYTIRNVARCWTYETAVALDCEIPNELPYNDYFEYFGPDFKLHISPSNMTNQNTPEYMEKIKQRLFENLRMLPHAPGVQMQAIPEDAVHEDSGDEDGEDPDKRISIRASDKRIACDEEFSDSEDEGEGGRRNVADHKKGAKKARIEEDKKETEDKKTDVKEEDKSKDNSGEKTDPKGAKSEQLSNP"}, "source": "patent US20080248994A1", "about": "(GOVERNMENT OF THE UNITED STATES OF AMERICA AS REPRESENTED …, published 2008)", "molecules": {"B1": {"name": "MyoD (endogenous, in extracts of C2C12 cells; also endogenous MyoD of MD3 and CC42 cells) (other, mouse, UniProt P10085 1-318, looked up)", "chain": "MELLSPPLRDIDLTGPDGSLCSFETADDFYDDPCFDSPDLRFFEDLDPRLVHMGALLKPEEHAHFPTAVHPGPGAREDEHVRAPSGHHQAGRCLLWACKACKRKTTNADRRKAATMRERRRLSKVNEAFETLKRCTSSNPNQRLPKVEILRNAIRYIEGLQALLRDQDAAPPGAAAFYAPGPLPPGRGSEHYSGDSDASSPRSNCSDGMMDYSGPPSGPRRQNGYDTAYYSEAARESRPGKSAAVSSLDCLSSIVERISTDSPAAPALLLADAPPESPPGPPEGASLSDTEQGTQTPSPDAAPQCPAGSNPNAIYQVL", "notes": "Transcription factor (bHLH)"}, "B2": {"name": "myc-MyoD (expressed from a transfected vector in pRb-/- 3T3 cells) (other, UniProt P10085 1-318, looked up)", "chain": "B1 chain", "notes": "also called myc-tagged MyoD; not shown: myc tag"}, "B3": {"name": "GST-pRb wt (protein, UniProt P06400 379-928, looked up, not shown: a dimerising Fc or GST)", "chain": "MNTIQQLMMILNSASDQPSENLISYFNNCTVNPKESILKRVKDIGYIFKEKFAKAVGQGCVEIGSQRYKLGVRLYYRVMESMLKSEEERLSIQNFSKLLNDNIFHMSLLACALEVVMATYSRSTSQNLDSGTDLSFPWILNVLNLKAFDFYKVIESFIKAEGNLTREMIKHLERCEHRIMESLAWLSDSPLFDLIKQSKDREGPTDHLESACPLNLPLQNNHTAADMYLSPVRSPKKKGSTTRVNSTANAETQATSAFQTQKPLKSTSLSLFYKKVYRLAYLRLNTLCERLLSEHPELEHIIWTLFQHTLQNEYELMRDRHLDQIMMCSMYGICKVKNIDLKFKIIVTAYKDLPHAVQETFKRVLIKEEEYDSIIVFYNSVFMQRLKTNILQYASTRPPTLSPIPHIPRSPYKFPSSPLRIPGGNIYISPLKSPYKISEGLPTPTKMTPRSRILVSIGESFGTSEKFQKINQMVCNSDRVLKRSAEGSNPPKPLKKLRFDIEGSDEADGSKHLPGESKFQQKLAEMTSTRTRMQKQKMNDSMDTSNKEEK"}, "B4": {"name": "hypophosphorylated pRb (endogenous, differentiated C2C12 myotubes, DM) (protein, mouse, UniProt P13405 2-921, looked up)", "chain": "PPKAPRRAAAAEPPPPPPPPPREDDPAQDSGPEELPLARLEFEEIEEPEFIALCQKLKVPDHVRERAWLTWEKVSSVDGILEGYIQKKKELWGICIFIAAVDLDEMPFTFTELQKSIETSVYKFFDLLKEIDTSTKVDNAMSRLLKKYNVLCALYSKLERTCELIYLTQPSSALSTEINSMLVLKISWITFLLAKGEVLQMEDDLVISFQLMLCVVDYFIKFSPPALLREPYKTAAIPINGSPRTPRRGQNRSARIAKQLENDTRIIEVLCKEHECNIDEVKNVYFKNFIPFINSLGIVSSNGLPEVESLSKRYEEVYLKNKDLDARLFLDHDKTLQTDPIDSFETERTPRKNNPDEEANVVTPHTPVRTVMNTIQQLMVILNSASDQPSENLISYFNNCTVNPKENILKRVKDVGHIFKEKFANAVGQGCVDIGVQRYKLGVRLYYRVMESMLKSEEERLSIQNFSKLLNDNIFHMSLLACALEVVMATYSRSTLQHLDSGTDLSFPWILNVLNLKAFDFYKVIESFIKVEANLTREMIKHLERCEHRIMESLAWLSDSPLFDLIKQSKDGEGPDNLEPACPLSLPLQGNHTAADMYLSPLRSPKKRTSTTRVNSAANTETQAASAFHTQKPLKSTSLALFYKKVYRLAYLRLNTLCARLLSDHPELEHIIWTLFQHTLQNEYELMRDRHLDQIMMCSMYGICKVKNIDLKFKIIVTAYKDLPHAAQETFKRVLIREEEFDSIIVFYNSVFMQRLKTNILQYASTRPPTLSPIPHIPRSPYKFSSSPLRIPGGNIYISPLKSPYKISEGLPTPTKMTPRSRILVSIGESFGTSEKFQKINQMVCNSDRVLKRSAEGGNPPKPLKKLRFDIEGADEADGSKHLPAESKFQQKLAEMTSTRTRMQKQRMNESKDVSNKEEK", "modifications": "hypophosphorylated (sites not given)"}}, "key": {"[1]": {"target": "FLAG-HDAC1 (recombinant, baculovirus expressed, affinity purified) (UniProt Q13547)", "assay": "purified proteins, anti-HDAC1 immunoprecipitation (FIG. 6B)"}, "[2]": {"target": "FLAG-HDAC1 (recombinant, baculovirus expressed, affinity purified) (UniProt Q13547)", "assay": "purified proteins (3 pmol HDAC1, 10 pmol His-MyoD), anti-HDAC1 immunoprecipitation, anti-MyoD blot"}, "[3]": {"target": "HDAC1 (endogenous, in extracts of C2C12 cells and other myogenic cells) (mouse) (UniProt O09106)", "assay": "immunoprecipitation of HDAC1 from MyoD-converted pRb-/- p53+/- 3T3 fibroblasts, anti-MyoD Western blot"}, "[4]": {"target": "HDAC2 (endogenous, C2C12 cells) (mouse) (UniProt P70288)", "assay": "co-immunoprecipitation from C2C12 extracts (data not shown)"}, "[5]": {"target": "Flag-HDAC1 (expressed from a transfected vector in cells) (UniProt Q13547)", "assay": "co-immunoprecipitation from transfected pRb-/- 3T3 cells"}, "[6]": {"target": "Flag-HDAC1 (expressed from a transfected vector in cells) (UniProt Q13547)", "assay": "GST-pRb pre-incubation and anti-Flag IP (FIG. 9B)"}, "[7]": {"target": "Flag-HDAC1 (expressed from a transfected vector in cells) (UniProt Q13547)", "assay": "GST pull-down from extracts of transfected pRb-/- 3T3 cells, anti-Flag Western blot (FIG. 9B, lanes 1 to 5)"}}, "note": "These are yes or no findings as the source states them, for the method shown. For some assays here: In cells and extracts the contact can be indirect. Some binding calls cover weakened binding; strength is not graded here. For some assays here: Sequences can lack the tags named with a protein."}
{"molecule": "His-MyoD (recombinant, expressed in bacteria) (from UniProt P10085 1-318)", "values": [{"measurement": "binding", "setting": "[1]", "value": "binds"}, {"measurement": "binding", "setting": "[2]", "value": "binds"}]}
{"molecule": "MyoD expressed by retrovirus in pRb-/- p53+/- double knock out derived 3T3 fibroblasts (from UniProt P10085 1-318)", "values": [{"measurement": "binding", "setting": "[3]", "value": "binds"}]}
{"molecule": "B1", "values": [{"measurement": "binding", "setting": "[4]", "value": "binds"}]}
{"molecule": "B2", "values": [{"measurement": "binding", "setting": "[5]", "value": "binds"}, {"measurement": "binding", "setting": "[6]", "value": "binds"}]}
{"molecule": "B3", "values": [{"measurement": "binding", "setting": "[7]", "value": "binds"}]}
{"molecule": "B4", "values": [{"measurement": "binding", "setting": "[4]", "value": "binds"}]}
